Measured values taken from paper PMC11055322.

Amino acid sequences for entries named in this document (tags omitted). Residues count along the entry.
UniProt O95299, residues 36-355: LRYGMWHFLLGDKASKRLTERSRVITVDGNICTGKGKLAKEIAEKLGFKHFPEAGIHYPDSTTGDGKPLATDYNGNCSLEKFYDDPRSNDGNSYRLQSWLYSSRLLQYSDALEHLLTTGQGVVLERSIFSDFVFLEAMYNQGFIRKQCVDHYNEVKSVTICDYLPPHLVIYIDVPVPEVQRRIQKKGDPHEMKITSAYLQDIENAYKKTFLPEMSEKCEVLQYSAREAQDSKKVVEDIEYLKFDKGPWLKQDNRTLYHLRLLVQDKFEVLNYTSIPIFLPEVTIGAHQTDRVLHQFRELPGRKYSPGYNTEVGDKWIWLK

Molecular target: T1, caveolin 3 (CAV3) (human (endogenous in AC16)) (UniProt P56539)
T1 sequence: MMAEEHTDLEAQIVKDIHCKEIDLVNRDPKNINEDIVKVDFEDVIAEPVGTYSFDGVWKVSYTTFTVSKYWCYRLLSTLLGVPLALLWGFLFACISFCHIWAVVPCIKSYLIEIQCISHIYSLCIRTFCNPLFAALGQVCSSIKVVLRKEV
Assay: affinity purification with mass spectrometry; IP with anti-CAV3 antibody and protein A/G agarose beads; Coomassie staining; beads with protein-antibody complexes sent for LC-MS/MS

In the case of “NDUFA10, a subunit of mitochondrial complex I (from UniProt O95299 36-355)”, the binding is reported as “binds”.

Results are given in words; binding and its absence hold for the method and conditions named. Binding seen in cells or lysates may run through a third protein. Here binding means that the protein was enriched with, or labelled near, the bait; the list need not be complete.
